Laboratory results from patent EP4825863A1, “DESIGN, PREPARATION AND APPLICATION OF TARGETED ACTIVATION ENRICHMENT TYPE NEAR-INFRARED PROBE AND PHOTOSENSITIZER” (dated 2026).

Columns and labels:
HeLa cells [1] = experiment: ROS production in HeLa cells (H2DCFDA)
Description: (§1) Experimental conditions: HeLa cells or HEK293 cells were incubated with the photosensitizer ALPIN-6I (0, 1, 2, 4 µM) or ALPIN-4I (4 µM) and the ROS probe H2DCFDA (10 µM) at 37°C for 30 minutes. After washing twice with PBS, the cells were irradiated with a 660 nm light source at 36 mW for 2 minutes, and fluorescence imaging was performed using a fluorescence microscope.

HEK293 cells = experiment: ROS production in HEK293 cells (H2DCFDA, negative control cells); details: 660 nm light
Description: as §1

HeLa cells [2] = experiment: Photodynamic killing of tumor cells (live/dead staining)
Description: Experimental conditions: HeLa cells or HEK293 cells were incubated with the photosensitizer ALPIN-6I or ALPIN-4I (4 µM) at 37°C for 1 hour. The incubation medium was then removed, and fresh medium containing FBS was added. Subsequently, the cells were irradiated with a 660 nm light source at 36 mW for 10 minutes, followed by incubation at 37°C for 24 hours. Staining was performed using a live/dead cell staining kit (Beyotime), and fluorescence imaging was performed using a fluorescence microscope.

HeLa tumor [3] = experiment: Photodynamic therapy of HeLa tumor-bearing mice; details: for Tumor volume: 1.1 mg/kg tail vein, 660 nm 0.5 W 10 minutes
Description: Experimental conditions: Tumor-bearing mice were first divided into three groups with four mice per group. The photosensitizer was administered via tail vein injection at 1.1 mg/kg. After 1 hour, the mice were irradiated with a 660 nm light source at 0.5 W for 10 minutes, and a second irradiation was performed 24 hours later. After 48 hours, the photosensitizer was re-injected, followed by light irradiation 1 hour later, and a second irradiation was performed 72 hours later. Subsequently, the tumor-bearing mice were allowed to recover spontaneously for 15 days.

HeLa cells [4] = experiment: Quantification of photosensitizer enrichment in HeLa cells
Description: Experimental conditions: 1.5 mL of the photosensitizer ALPIN-6I (4 µM) was incubated with HeLa cells (1 × 10^5 cells) overexpressing ALP on the cell surface at 37°C for 1 hour. After incubation, the incubation medium was collected. The cells were washed twice with phenol red-free DMEM, and the wash buffer was collected. Subsequently, 200 µL of RIPA lysis buffer was added to fully lyse the cells, and the lysate was collected. ALP and BSA were added to the collected incubation medium and wash buffer to ensure complete activation of residual probes. Fluorescence intensity was measured using a fluorometer, with three parallel replicates. Probe concentration was calculated based on the standard calibration curve. Photosensitizer concentration in the cell lysate was determined using the same method. The concentration within the cells was then calculated based on the cell volume (2.6 × 10^3 µm^3 = 2.6 × 10^-12 L per cell).

HeLa tumor [5] = experiment: Real-time in vivo fluorescence imaging of HeLa tumor-bearing mice (ALPIN-6I)
Description: Experimental conditions: Tumor-bearing mice were first divided into three groups with three mice per group. Whole-body background fluorescence images were acquired from six nude mice using an IVIS Lumina XRMS Series III in vivo imaging system (λex = 660 nm, λem = 710 nm). The photosensitizer ALPIN-6I or ALPIN-4I was then prepared as a 40 µM solution in PBS. Each tumor-bearing mouse received 200 µL of the prepared probe solution via tail vein injection using an insulin syringe. Subsequently, whole-body fluorescence data from the experimental mice were collected using the in vivo imaging system at multiple time points (1 h, 2 h, 3 h, 4 h, 6 h, 8 h, and 24 h). For the inhibitor group, 50 µL of 10 mM Na3VO4 solution was first injected intratumorally, and 30 minutes later, ALPIN-6I was administered at the same concentration, followed by imaging at the same time points.

[6] = system: mixed population of HeLa cells and HEK293 cells; experiment: Selective killing in mixed HeLa and HEK293 cell population (PI staining); details: 4 µM, 30 minutes; 660 nm, 36 mW, 10 minutes
Description: Experimental conditions: A mixed population of HeLa cells and HEK293 cells (stably expressing yellow fluorescent protein) was incubated with the photosensitizer ALPIN-6I (4 µM) at 37°C for 30 minutes. The incubation medium was then removed, and fresh medium containing FBS was added. Subsequently, the cells were irradiated with a 660 nm light source at 36 mW for 10 minutes, followed by incubation at 37°C for 24 hours. PI staining was performed to identify dead cells using a live/dead cell staining kit (Beyotime), and fluorescence imaging was performed using a fluorescence microscope.

HeLa cells [7] = experiment: Real-time confocal imaging of HeLa cells with ALPIN-7; details: 1 µM
Description: Experimental conditions: Cultured HeLa cells were seeded in a confocal dish, and 1 µM of the fluorescent probe ALPIN-7 was added to the HeLa cells. Time-dependent fluorescence imaging was performed using a confocal fluorescence microscope (Cy 5.5 channel).

[8] = system: HeLa cells overexpressing alkaline phosphatase (ALP); experiment: Confocal fluorescence imaging of HeLa cells with ALPIN-7 and ALPIN-8; details: 5 µM
Description: Experimental conditions: 5 µM of the fluorescent probes ALPIN-7 and ALPIN-8 (structure shown in FIG. 22) were incubated separately with HeLa cells overexpressing ALP on the cell surface and normal HEK293 cells with low ALP expression in a culture dish at 37°C for 30 minutes. Alternatively, HeLa cells were pre-treated with the alkaline phosphatase inhibitor Na3VO4 for 1 hour, followed by incubation with the probes for 30 minutes. After incubation, the probe-containing culture medium was discarded, and the cells were washed once with PBS (pH = 7.4). Subsequently, 1 mL of phenol red-free DMEM was added, and fluorescence imaging was performed using a confocal fluorescence microscope (Cy 5.5 channel).

Q: Which results are given for `CCC[N+]1=C(/C=C/C2=C3Oc4cc(OCc5ccc(OP(=O)(O)O)cc5)c(COC(=O)NCc5cn(CC[N+](C)(C)CCCS(=O)(=O)O)nn5)cc4C=C3CCC2)C(C)(C)c2cc(I)ccc21`?
A: green fluorescence of DCF (ROS generation) (HeLa cells [1]; ALPIN-6I 0, 1, 2, 4 µM or ALPIN-4I 4 µM, H2DCFDA 10 µM, 660 nm, 36 mW, 2 minutes): increased with increasing concentration of ALPIN-6I; green fluorescence of DCF (ROS generation) without light (HeLa cells [1]; absence of light irradiation): no green fluorescence was observed in the absence of light irradiation; activation / ROS generation in negative cells (HEK293 cells): cannot be activated in negative cells; live/dead cell staining after light irradiation (HeLa cells [2]; 4 µM, 1 hour, 660 nm, 36 mW, 10 minutes, 24 hours, PI red = dead, AM green = live): PI staining; conditions required for activation to kill tumors (HeLa cells [2]; HeLa vs HEK293, with vs without light): Only in the presence of both ALP and light irradiation; Tumor volume (HeLa tumor [3]; Day 12): 122.30 ± 17.56 mm^3; Tumor volume (HeLa tumor [3]; Day 14): 39.73 ± 18.93 mm^3; Tumor volume (HeLa tumor [3]; Day 16): 7.70 ± 7.01 mm^3; Tumor volume (HeLa tumor [3]; Day 18): 0.00 mm^3; Tumor volume (HeLa tumor [3]; Day 20): 0.00 mm^3; tumors of the tumor-bearing mice after 4 days of treatment (HeLa tumor [3]; after 4 days of treatment): completely disappeared; tumor recurrence (HeLa tumor [3]; after 18 days of treatment): no recurrence observed; fluorescence of cell pellet after incubation and centrifugation (HeLa cells [4]): distinct blue fluorescence; photosensitizer concentration in HeLa cells (HeLa cells [4]; 4 µM, 1 × 10^5 cells, 37°C, 1 hour, calculated from cell volume): 2.4 mM; fluorescence intensity within the cells relative to incubation medium (HeLa cells [4]; 4 µM, 37°C, 1 hour): more than 2000 fold; total concentration in the incubation medium and wash buffer (HeLa cells [4]; 4 µM, 37°C, 1 hour): 0.00087 mM; fluorescence at the tumor site at 1 hour post-injection (HeLa tumor [5]; 200 µL of 40 µM in PBS, tail vein): strong fluorescence signals at the tumor site; time up to which significant tumor-associated fluorescence remained detectable (HeLa tumor [5]; intravenous administration): up to 24 hours; selective killing in mixed cell population [6]: can selectively kill ALP-overexpressing HeLa cells without affecting normal cells

Q: How did the time-dependent intracellular fluorescence (HeLa cells [7]) turn out when `CCC[N+]1=C(/C=C/C2=C3Sc4cc(OCc5ccc(OP(=O)(O)O)cc5)c(COC(=O)NCc5cn(CC[N+](C)(C)CCCS(=O)(=O)O)nn5)cc4C=C3CCC2)C(C)(C)c2ccccc21` was run?
A: intracellular fluorescence intensity continuously increased over time

Q: What about the “fluorescence imaging of cells” value ([8]; 37°C, 30 minutes, compared with control probe ALPIN-8) of the same compound?
A: more pronounced fluorescence imaging of ALP-overexpressing cells

Q: What about the “fluorescence labeling of HeLa cells in the ALP inhibitor group” value ([8]; HeLa cells pre-treated with Na3VO4 for 1 hour) of the same compound?
A: reduced

The match of structure and compound is tentative.
